Results: PubChem BioAssay AID540256 (National Center for Advancing Translational Sciences (NCATS), 2011)
In all, about 300,000 compounds went through this assay and about 3,700 (1.2%) were called active. Inconclusive results, whose numbers are uncertain, are shown with a selection of clear calls. Calls come from the whole dose curve; tested in HEK293 cells. Potencies of inconclusive entries are doubtful fits and often do not repeat.

Assay: qHTS for Inhibitors of binding or entry into cells for Lassa Virus; note: nearly all actives have a fitted effect of over 50% in size
Conditions: Lassa virus pseudotype entry inhibition, cell reporter; activity change, negative = inhibition: at 37.9 µM (top of the series) unless noted
% is set by controls: 0 for no effect and ±100 for the full control effect; potency is the fitted concentration of half-maximal effect.

Row | Structure (SMILES) | Potency | activity change, negative = inhibition
1 | CCn1c(SCC(=O)N2CCC(C)CC2)nc2c(c1=O)SCC2 | inconclusive: 12.6 µM [inhibitor, partial curve, poor fit] | 
2 | COc1ccc(NC(=O)CCn2c(=O)c3cccn3c3ccccc32)cc1 | inconclusive: 35.5 µM [inhibitor, single point] | 
3 | Cc1cc(C)cc(NC(=O)COc2ccc3c(C)c(Cc4ccccc4)c(=O)oc3c2)c1 |  | inactive: 13.6%
4 | O=C1CC(c2nc3ccccc3n2Cc2c(F)cccc2Cl)CN1c1cccc(C(F)(F)F)c1 (stereo unspecified) | inconclusive: 2.82 µM [inhibitor, single point] | 
5 | CSc1cccc(N2C(=O)N(Cc3ccc([N+](=O)[O-])cc3)c3ccccc3S2(=O)=O)c1 | inconclusive: 15.8 µM [activator, single point] | 
6 | Cc1ccc(OC(C)C(=O)N2CCN(c3ccccn3)CC2)cc1 (stereo unspecified) |  | inactive: 1.45%
7 | Cc1ccc2nc(/C(C#N)=C/c3cn[nH]c3-c3ccc(F)cc3)[nH]c2c1 | inconclusive: 10 µM [inhibitor, partial curve, poor fit] | 
8 | O=C(CSC1=Nc2ccccc2C2CC=NN12)NCc1ccco1 (stereo unspecified) | inconclusive: 35.5 µM [inhibitor, single point] | 
9 | CCOC(=O)c1c(C)[nH]c(C(=O)COC(=O)c2c(CC)noc2C)c1C | inconclusive: 1 µM [inhibitor, partial curve, poor fit] | 
10 | CC(=O)Cn1nnc2sc(-c3ccccc3)cc2c1=O | inconclusive: 3.16 µM [activator, full curve, poor fit] | 
11 | Cc1c(Cl)cccc1Nc1sc(C(=O)c2ccccc2)c(N)c1S(=O)(=O)c1ccccc1 | inconclusive: 3.16 µM [inhibitor, single point] | 
12 | Cc1cc(=O)n(C(NC(=O)c2ccccc2)C(=O)c2ccccc2)cn1 (stereo unspecified) |  | inactive: -7.93%
13 | CC(=O)Nc1ccc(/C=N/NC(=O)CCN2CCN(c3ccccc3)CC2)cc1 | inconclusive: 10 µM [inhibitor, partial curve, poor fit] | 
14 | CCOc1ccc(NC(=O)CNC(=O)Cc2ccccc2)cc1 | inconclusive: 18.3 µM [inhibitor, single point] | 
15 | CC1C(=O)N(Cc2cn(CC3CCCCC3)nn2)CCS(=O)(=O)N1Cc1ccc(-c2ccncc2)cc1 (stereo unspecified) | inconclusive: 11.2 µM [activator, single point] | 
16 | O=C(NC1CCCCCCC1O)c1ccccc1 (stereo unspecified) |  | inactive: 6.67%
17 | O=C(CN(c1ccc(Cl)cc1)S(=O)(=O)c1ccccc1)N1CCN(c2ccccc2)CC1 | inconclusive: 29.1 µM [inhibitor, single point] | 
18 | Oc1c(C2=NCCNC(C(F)(F)F)=C2)ccc2ccccc12 | inconclusive: 7.08 µM [inhibitor, partial curve, poor fit] | 
19 | CC12CCC(C(=O)Nc3cccnc3)(CC1=O)C2(C)C (stereo unspecified) | inconclusive: 35.5 µM [activator, partial curve, poor fit] | 
20 | O=C(CCl)Nc1cccc(CP(=O)(c2ccccc2)c2ccccc2)c1 | active: 7.94 µM | 
21 | COc1ccc(Nc2cc(C)nc(NCc3ccccc3)n2)cc1 | inconclusive: 22.4 µM [inhibitor, single point] | 
22 | Cc1ccc(-n2ncc3c(=O)n(CC(=O)N4CCN(c5ccccc5)CC4)cnc32)cc1 |  | inactive: -1.92%

Row | Structure (SMILES) | Potency | activity change, negative = inhibition
23 | Cn1ccc2c(N3CCCCCC3)cc3c(c21)C1CCC3C1 (stereo unspecified) | inconclusive: 25 µM [inhibitor, partial curve, poor fit] | 
24 | COCCCNC(=O)CCCn1c(=O)c2cccn2c2cccnc21 | inconclusive: 35.5 µM [activator, single point] | 
25 | CCCN(CCC)CCCNC(=O)Cn1ncc2c3ccccc3n(Cc3ccc(F)cc3)c2c1=O |  | inactive: -1.29% [at 46.1 µM]
26 | CCCCOc1cccc(C(=O)Nc2cc3nn(-c4ccc(F)cc4)nc3cc2C)c1 | inconclusive: 31.6 µM [activator, single point] | 
27 | CS(=O)c1ccccc1-c1nc(-c2ccc(Cl)cc2)no1 (stereo unspecified) |  | inactive: 24.2%
28 | CN1CC(=O)N(CCOc2ccccc2)C1=O | inconclusive: 5.62 µM [activator, single point] | 
29 | Cc1ccc(C(=O)Nc2ccc(F)cc2F)o1 |  | inactive: 1%
30 | CC(C)CCNC(=O)c1ccc2c(Cl)c3c(nc2c1)CCC3 | inconclusive: 10 µM [inhibitor, partial curve, poor fit] | 
31 | OCCNCCCCOc1ccc(OCc2ccccc2)cc1 | inconclusive: 2.06 µM [activator, partial curve] | 
32 | COc1cccc(-n2c(CN3CCN(c4cccc(C)c4)C(C)C3)nc3ccc([N+](=O)[O-])cc3c2=O)c1 (stereo unspecified) | inconclusive: 1.58 µM [inhibitor, full curve, poor fit] | 
33 | O=C1NC(=S)N/C1=C/c1cccc([N+](=O)[O-])c1 |  | inactive: 10.9%
34 | C=CCOc1ccc(/C=C/C(=O)OCC(=O)N2CCN(C(C)=O)CC2)cc1 | inconclusive: 12.6 µM [inhibitor, partial curve, poor fit] | 
35 | O=C(CCn1cccc1)N1CCc2ccccc21 | inconclusive: 11.2 µM [activator, single point] | 
36 | Cn1sc(NC(=O)c2cccc(Cl)c2)nc1=O |  | inactive: 1.33%
37 | COc1ccc(N/C(N)=N/c2nc(CSc3nnc(C)s3)cc(=O)[nH]2)cc1 | inconclusive: 1.58 µM [inhibitor, full curve, poor fit] | 
38 | NC(Cc1ccc(Oc2ccc(O)cc2)cc1)C(=O)O (stereo unspecified) |  | inactive: -12.3%
39 | O=C(NC1CCC(O)CC1)c1ccc(Br)o1 (stereo unspecified) | inconclusive: 5.62 µM [inhibitor, single point] | 
40 | O=C(Nc1ccc(Br)cc1Cl)c1ccc(OCC2CCCO2)cc1 (stereo unspecified) |  | inactive: -27%
41 | COc1cccc(CN(C)C(=O)c2cc(S(=O)(=O)N3CCN(c4ccccc4)CC3)ccc2Cl)c1 | inconclusive: 35.5 µM [inhibitor, single point] | 
42 | COc1ccc(C(=O)O/N=C(\N)c2ccccn2)cc1 | inconclusive: 7.94 µM [inhibitor, partial curve, poor fit] | 
43 | CCC(C)C(Nc1ncnc2scc(-c3ccccc3)c12)C(=O)O (stereo unspecified) | inconclusive: 2.82 µM [activator, single point] | 
44 | Cc1cc(=O)[nH]c2ccc(S(=O)(=O)Nc3ccccc3)cc12 | inconclusive: 25.1 µM [inhibitor, partial curve, poor fit] | 

Full records as entered above.
CCC(C)C(Nc1ncnc2scc(-c3ccccc3)c12)C(=O)O (stereo unspecified) is listed with Potency: inconclusive: 2.82 µM [activator, single point]
O=C(CSC1=Nc2ccccc2C2CC=NN12)NCc1ccco1 (stereo unspecified) is listed with Potency: inconclusive: 35.5 µM [inhibitor, single point]
Cc1ccc2nc(/C(C#N)=C/c3cn[nH]c3-c3ccc(F)cc3)[nH]c2c1 is listed with Potency: inconclusive: 10 µM [inhibitor, partial curve, poor fit]

(continued)

Row | Structure (SMILES) | Potency | activity change, negative = inhibition
45 | COc1cc(NC(=O)c2cc3c(=O)oc4ccc(C)cc4c3s2)cc(OC)c1OC |  | inactive: 7.83% [at 46.1 µM]
46 | CC(C)(CC(=O)OCC(=O)Nc1ccc(F)c(Cl)c1)CC1=NS(=O)(=O)c2ccccc2N1 | inconclusive: 35.5 µM [inhibitor, single point] | 
47 | Cn1c(SCC(=O)NCc2ccccc2)nnc1C1CC1 | inconclusive: 0.058 µM [activator, partial curve, poor fit] | 
48 | COC(=O)/C=C/C(=O)N1CCN(c2cccc(Cl)c2)CC1 | inconclusive: 20.6 µM [inhibitor, single point] | 
49 | Cc1cccc(N(Cc2ccccc2)C(=O)c2cc(S(=O)(=O)N3CCOCC3)ccc2F)c1 | inconclusive: 35.5 µM [inhibitor, single point] | 
50 | Cc1ccc(C)c2[nH]c(=O)c(C(c3nnnn3C(C)(C)C)N3CC=C(c4ccc(F)cc4)CC3)cc12 (stereo unspecified) | inactive | 
51 | CNS(=O)(=O)c1ccc(N=Cc2c(O)n(-c3ccc(C)cc3)c(=O)[nH]c2=O)cc1 | inconclusive: 3.16 µM [inhibitor, partial curve, poor fit] | 
52 | CCOc1ccc(S(=O)(=O)N2CCC(C(=O)N3CCCC3)CC2)cc1C | inconclusive: 8.91 µM [inhibitor, partial curve] | 
53 | COc1ccc(-c2noc(-c3ccccc3C(=O)NCC3CCCO3)n2)cc1 (stereo unspecified) | inconclusive: 10 µM [inhibitor, partial curve, poor fit] | 
54 | Cc1cc(NC(=O)Cn2nc([N+](=O)[O-])c(Br)c2C)no1 | inconclusive: 15.8 µM [activator, single point] | 
55 | Cc1cc(C)n2cc(COc3ccc4ccccc4c3)nc2n1 | inconclusive: 20.6 µM [inhibitor, single point] | 
56 | CCCCN1C(=O)NC2NC(=O)NC21 (stereo unspecified) | inconclusive: 1 µM [inhibitor, partial curve, poor fit] | 
57 | CCOC(=O)c1[nH]c2ccccc2c1NC(=O)c1ccc(OC(C)C)cc1 | inconclusive: 0.562 µM [activator, full curve, poor fit] | 
58 | Cc1ccc(SCC(=O)NN=C2CCN(C)CC2)cc1 | inconclusive: 22.4 µM [inhibitor, partial curve, poor fit] | 
59 | Clc1ccc(-c2cccs2)nn1 | inconclusive: 10 µM [activator, partial curve] | 
60 | CC(C)(c1ccccc1)c1ccc(OCC(O)CN2CCCC2)cc1 (stereo unspecified) | inconclusive: 10 µM [inhibitor, partial curve, poor fit] | 
61 | CCOC(=O)C1(Cc2ccc(Cl)cc2)CCN(CCCn2cccn2)CC1 | inconclusive: 14.1 µM [inhibitor, single point] | 
62 | COc1cc(/C=C2\SC(=Nc3ccc(O)cc3)NC2=O)cc(OC)c1OC | inconclusive: 1.46 µM [inhibitor, full curve] | 
63 | COc1cc(C(=O)OCc2nc3ccsc3c(=O)[nH]2)c([N+](=O)[O-])cc1OC |  | inactive: 12.7%
64 | Clc1ccc(C2NCCc3[nH]cnc32)cc1 (stereo unspecified) | inconclusive: 6.31 µM [inhibitor, single point] | 
65 | CCOC(=O)c1ccccc1NS(=O)(=O)c1c(-c2ccc(C)cc2)csc1C(=O)OC |  | inactive: -29.1% [at 46.1 µM]
66 | COc1ccccc1NC(=O)CN1CCSc2ccccc21 | inconclusive: 0.891 µM [inhibitor, single point] | 
